Among the data in PMC7641760 are binding result and binding signal values, retold here.

For the data set, the system named is human alpha-thrombin (Homo sapiens). Briefly: EMSA. The note with it: Kd printed only in graph, EMSA: 1x binding buffer (PBSMT pH 7.2: 137 mM NaCl, 2.68 mM KCl, 8.1 mM Na2HPO4, 1.76 mM KH2PO4, 1 mM MgCl2, 0.025% Tween-20), <50 pM 32P-DNA, 30 min, commercial protein, folded or branched DNA; for binding result: label: 32P. (Mobility shift assays separate free from complexed probe on a gel.)

Weaker means in comparison with the reference protein, sequence or condition of that experiment. The exact form of at least one protein or probe is not confirmed. Whether high values mean tight binding is not given here for every scale.

Consider “ATCTCGAGTCATAGGGGGCGCGAACATACGCGGTTGGTGTGGTTGGCTGACTCGT [LTBA4T-B1]”, for which the binding result is listed as “binds more weakly”.

As to “ATCTCGACTAGTCATTTTTTTTTTTTTTTTTTTTGGTTGGTGTGGTTGGTTTTTTTTTTTTTTTTTTTTTGTCTCGGAT [CTBA4MT]”, the binding result (circular (5'-3' ligated)) is “binds more weakly”. With GGTTGGTGTGGTTGG [TBA15], where the note is “label: 32P (direct EMSA), unlabeled as competitor, scale: fold weaker than CTBA4T”, the binding signal is 800. On to “ATCTCGACTAGTCATAGGGGGCGCGAACATACGCGGTTGGTGTGGTTGGCTGACAATACTCGT [LTBA4T]”, for which the binding result is recorded as “binds more weakly”.
